Measured values from US11981953B2, “Method to screen compounds for antifungal activity and pharmaceutical compositions and methods to treat fungal diseases by inhibiting spore germination” (WISCONSIN ALUMNI RESEARCH FOUNDATION, priority 2018, dated 2024).

Key:
Assay type in all cases: cell-based
[1] = tested on: Cryptococcus neoformans (JEC21); assay: MIC/MFC experiments (EUCAST based), JEC21; conditions: 48 h
Protocol: (§1) All minimum inhibitory concentration (MIC) experiments were based on EUCAST methodology. […] After 6-hour incubation, yeast cells were washed in 1×PBS and quantified using a hemocytometer. […] Cryptococcus neoformans cells were incubated for 2 days at 30° C. while Candida albicans strains were incubated for 2 days at 35° C. OD600 readings were used to assess the MIC values for each drug. To determine minimum fungicidal concentrations (MFC) values, 3 μL per well were plated on YPD and allowed to grow for 2 days.

[2] = tested on: Candida albicans (SC5314); assay: MIC/MFC experiments (EUCAST based), Candida albicans; conditions: SC5314, 48 h
Protocol: as §1

[3] = tested on: Cryptococcus neoformans (H99); assay: MIC/MFC experiments (EUCAST based), H99; conditions: 48 h
Protocol: as §1

[4] = tested on: Aspergillus Fumigatus (AF293); assay: Aspergillus fumigatus MIC on conidia; conditions: for MIC: Aspergillus fumigatus
Protocol: Conidia at a final concentration of 2×10^4 cells were incubated in RPMI, 0.33 M MOPS, and 2% glucose at pH 7 at varying concentrations of inhibitors, with a final volume of 200 μL.

[5] = tested on: Cryptococcus neoformans spores (JEC20 x JEC21); assay: Quantitative germination assay (microfluidic devices, cell size and shape); conditions: 25 μg/mL
Protocol: All germination assays are based on Barkal et al., 2016. Briefly, microfluidic devices were loaded with 1×10^5 spores, and at 0 hours, SD media with drug of interest, were added to the sample. Spores were allowed to germinated at 30° C. in a humidified chamber and cells were monitored every two (2) hours for 16 hours. Each assay was performed in two (2) individual wells with three (3) field of views acquired from each well. All images were analyzed as previously described based on cell shape and size. Population ratio of spores, intermediate, and yeast cells were determined. Error bars in plots are based on variation between all fields of view acquired. All experiments were able to be reproduced independently. After the 16-hour experiment, samples were plated on YPD and allowed to grow at 30° C. to determine if drugs were completely germicidal or not based on lack of growth. If assays were unable to be performed in microfluidic devices, the […] spores were incubated in identical conditions outside of PDMS devices and only loaded into devices for image acquisition.
Once yeast replication inhibition was confirmed, the ability of the drugs to inhibit spore germination was characterized using a quantified microfluidics-based germination assay where the changes in size and morphology are monitored as small ovoid spores germinate into large circular yeast.

Row | Compound | MIC [1] [µg/mL] | MIC [2] [µg/mL] | MIC [3] [µg/mL] | MIC [4] [µg/mL] | MFC ([1]; Cryptococcus neoformans) [µg/mL] | MFC [2] [µg/mL] | MFC ([3]; Cryptococcus neoformans) [µg/mL] | Ability to inhibit Aspergillus fumigatus ([4]; testing performed on conidia) | Inhibition of spore germination ([5]; 16 hours) | Germicidal ([5]; plated on YPD after the 16-hour experiment)
1 | CCCCCCCCCCCCCCCC[n+]1ccccc1 [Cetylpyridinium chloride] | < 0.78 | 1.56 | < 0.78 | 1.56 |  |  |  |  |  | 
2 | CC(C)(C)CC(C)(C)c1ccc(OCCOCC[N+](C)(C)Cc2ccccc2)cc1 [Benzethonium chloride] | 3.13 | 6.25 | 3.13 | 12.5 | 3.13 | 12.5 | 3.13 | able to inhibit A. fumigatus | inhibit spore germination completely | fully germicidal
